Measured values reported in PubChem BioAssay AID2685 (National Center for Advancing Translational Sciences (NCATS), 2010).
The other results are listed elsewhere or left out. Shown are side measurements of this screen, not its main read-out; they come without a call. Most of these compounds were active or inconclusive in the main read-out, so they are no random draw. Words in brackets tell the shape of the fitted curve; partial curves, single points and poor fits give uncertain potencies.

Test: qHTS Assay for Lipid Storage Modulators in Drosophila S3 Cells;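 as to cell number change: cells counted by Cell Tracker Red CMTPX staining in the red channel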
Settings: BODIPY lipid droplet fluorescence, 18-24 h; for cell number change: measured here: cell count max response, cells fed with added oleic acid
In short: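 Drosophila S3 cells loaded with oleic acid (400 uM, as added) and compounds at several concentrations; lipid droplets imaged by 488-nm laser-scanning cytometry, 500–530 nm intensity and object ratio to cell channel. Percent activity normalized to 20 uM Triacsin C.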

[1] = measured here: cell number channel AC50, cells fed with added oleic acid
[2] = measured here: lipid fluorescence (Fed channel) AC50, cells fed with added oleic acid

Row | Structure (SMILES) | AC50 [1] | AC50 [2] | cell number change [%]
1 | Cn1c(=N)c(S(=O)(=O)c2ccccc2)cc2c(=O)n3ccccc3nc21 | 0.366 µM [rising, full curve] | 0.259 µM [rising, full curve, poor fit] | –
2 | Cc1nc2c(ccc3nc(NC(=O)C(c4ccccc4)c4ccccc4)sc32)s1 | 18.4 µM [falling, partial curve] | 18.4 µM [falling, single point] | -82.8
3 | COc1cc(/C=C/C(=O)OCC(=O)NC(=O)NC(C)(C)C)cc(OC)c1OC | 0.0206 µM [falling, full curve, poor fit] | 0.103 µM [falling, full curve, poor fit] | -24.7
4 | COc1cccc(Nc2nc(-c3sc(NC(=O)CC(C)C)nc3C)cs2)c1 | 7.31 µM [falling, full curve, poor fit] | 7.31 µM [falling, full curve, poor fit] | -35.4
5 | CCCC(=O)Nc1nn(CC)c2nc3ccc(C)cc3cc12 | – | 1.64 µM [rising, full curve, poor fit] | 17.6
6 | CC1CC(c2ccccc2)n2nc(NC(=O)c3ccco3)nc2N1 (centres undefined) | – | 20.6 µM [falling, partial curve] | -0.144
7 | COc1ccc(N2C(=O)C3C(C2=O)C(C(=O)c2ccccc2)N2CCCC32)cc1 (centres undefined) | – | – | 5.66
8 | N#Cc1ccc(-c2ccc(OCC3CNC(=O)O3)cc2)cc1 (centres undefined) | 29.1 µM [falling, single point] | – | -45.3
9 | NS(=O)(=O)c1ccc(Oc2ccc(S(N)(=O)=O)cc2)cc1 | – | – | 21.3
10 | O=C(NCc1ccco1)/C(=C/c1ccc(Br)cc1)NC(=O)c1ccco1 | – | – | -11
11 | COc1ccc(C(=O)CSc2cc(C)[nH]c(=O)n2)cc1 | – | 29.1 µM [rising, single point] | -6.1
12 | Nc1ccccc1NC(=O)c1ccccc1 | – | 1.64 µM [falling, partial curve] | -0.556
13 | COc1ccc(CNC(=O)C2CC(C)=C(C)CC2C(=O)O)cc1OC (centres undefined) | – | 29.1 µM [rising, single point] | 2.75
14 | COC(=O)c1sccc1-c1ccc(C(=O)Nc2ccccc2)o1 | – | 16.4 µM [falling, single point] | 6.32
15 | Cc1ccc2nc(Cn3cc(C(F)(F)F)cc(Cl)c3=O)cc(=O)n2c1 | – | 29.1 µM [rising, single point] | 28.2
16 | COc1ccc(S(=O)(=O)N2CCC(C(=O)NCc3cccnc3)CC2)cc1C | 0.82 µM [rising, full curve, poor fit] | 35.5 µM [falling, single point] | 22.4
17 | COc1cccc(CNCCN2CCOCC2)c1OC | – | – | 0.879
18 | COc1ccc(OC)c(C2CC(c3ccc(NS(C)(=O)=O)cc3)=NN2C(=O)c2ccccc2)c1 (centres undefined) | 16.4 µM [rising, partial curve] | – | 34.8
19 | COc1ccc(NC(=O)CN(C)CC(=O)Nc2ccc(C)c(S(=O)(=O)N3CCCCC3)c2)cc1 | 6.51 µM [falling, single point] | 0.00461 µM [falling, full curve, poor fit] | 7.37
20 | Cc1cccc(CSc2ncccc2C(=O)O)c1 | – | 20.6 µM [rising, single point] | 5.23

Single records (already shown).
COc1ccc(C(=O)CSc2cc(C)[nH]c(=O)n2)cc1 reads AC50 [2]: 29.1 µM [rising, single point]; cell number change [%]: -6.1
CC1CC(c2ccccc2)n2nc(NC(=O)c3ccco3)nc2N1 (centres undefined) reads AC50 [2]: 20.6 µM [falling, partial curve]; cell number change [%]: -0.144

(continued)

Row | Structure (SMILES) | AC50 [1] | AC50 [2] | cell number change [%]
21 | O=C(Nc1ccc(N2CCN(C(=O)c3cccs3)CC2)cc1)c1ccc(F)cc1 | – | – | -0.427
22 | Cc1ccc(NC(=O)C2CCCN(S(=O)(=O)c3c(C)noc3/C=C/N(C)C)C2)cc1F (centres undefined) | 0.092 µM [rising, full curve, poor fit] | 9.2 µM [rising, single point] | 36
23 | CCOC(=O)c1c(N)sc(C(O)(C(F)(F)F)C(F)(F)F)c1-c1ccccc1 | 20.6 µM [falling, single point] | – | -185
24 | CCOc1ccc(-n2nc3c(=S)[nH]nc(C)c3c2C)cc1 | – | 14.6 µM [rising, partial curve] | -10.8
25 | CCCCOc1ccc(NC(=O)C(=O)NCCCn2ccnc2)cc1 | – | – | 7.87
26 | Cn1c(SCc2ccccc2)nc2ccsc2c1=O | – | – | 19.1
27 | CCOC(=O)N1CCN(C(=O)CSC2=NS(=O)(=O)c3ccccc3N2)CC1 | – | – | -11.1
28 | CN1CCN(/C=N/c2c(C#N)cnn2-c2ccccc2)CC1 | – | – | 10.3
29 | COc1ccc(C(=O)/C=C/Nc2ccc([N+](=O)[O-])cc2)cc1 | – | 6.51 µM [falling, single point] | 2.97
30 | CCOC(=O)c1c(NC(=O)CN2C(=O)NC3(CCC(C)CC3)C2=O)sc(C)c1-c1ccc(C)cc1 (centres undefined) | 20.6 µM [rising, single point] | – | 37.4
31 | O=[N+]([O-])c1ccccc1S(=O)(=O)Nc1cccc2cccnc12 | 17.8 µM [falling, single point] | 8.91 µM [falling, partial curve] | -67.9
32 | COC(=O)C1CCN(C(=O)C(C)Oc2ccc(Cl)cc2Cl)CC1 (centres undefined) | 6.51 µM [falling, single point] | 6.51 µM [falling, single point] | –
33 | CCOc1ccc(N(Cc2ccc(OC)cc2)C(=O)c2ccco2)cc1 | 2.59 µM [rising, single point] | – | –
34 | CC1=NN(c2ccc(Cl)cc2)C(=O)C1 | – | 16.4 µM [falling, single point] | -21.2
35 | COc1ccc(/C=N/n2c(N)c(S(=O)(=O)c3cccs3)c3nc4ccccc4nc32)cc1OC | 1.3 µM [rising, partial curve] | 1.03 µM [rising, full curve] | –
36 | CCOc1ccc(-c2[nH]nc3c2C(c2ccc4c(c2)OCO4)C(C#N)=C(N)O3)cc1OC (centres undefined) | – | – | -15.2
37 | O=S(=O)(c1ccccc1)N1N=C(c2cccs2)CC1c1ccc(F)cc1 (centres undefined) | – | – | 20.1
38 | Cc1ccccc1CSCC(=O)Nc1ccccc1F | – | 3.26 µM [rising, single point] | 2.92
39 | O=C(O)CC1(CC(=O)Nc2cccc(C(F)(F)F)c2)CCCC1 | – | 29.1 µM [rising, single point] | 15.6
40 | O=C(Nc1nccs1)C1CC(=O)N(CCc2ccccc2)C1 (centres undefined) | – | – | 5.62
